Our source for the binding values is article PMC8573827, “Zinc protoporphyrin binding to telomerase complexes and inhibition of telomerase activity” (Pharmacology Research & Perspectives, 2021).

By UniProt entry, the sequences of proteins in these tests, tags left out.
UniProt O14746: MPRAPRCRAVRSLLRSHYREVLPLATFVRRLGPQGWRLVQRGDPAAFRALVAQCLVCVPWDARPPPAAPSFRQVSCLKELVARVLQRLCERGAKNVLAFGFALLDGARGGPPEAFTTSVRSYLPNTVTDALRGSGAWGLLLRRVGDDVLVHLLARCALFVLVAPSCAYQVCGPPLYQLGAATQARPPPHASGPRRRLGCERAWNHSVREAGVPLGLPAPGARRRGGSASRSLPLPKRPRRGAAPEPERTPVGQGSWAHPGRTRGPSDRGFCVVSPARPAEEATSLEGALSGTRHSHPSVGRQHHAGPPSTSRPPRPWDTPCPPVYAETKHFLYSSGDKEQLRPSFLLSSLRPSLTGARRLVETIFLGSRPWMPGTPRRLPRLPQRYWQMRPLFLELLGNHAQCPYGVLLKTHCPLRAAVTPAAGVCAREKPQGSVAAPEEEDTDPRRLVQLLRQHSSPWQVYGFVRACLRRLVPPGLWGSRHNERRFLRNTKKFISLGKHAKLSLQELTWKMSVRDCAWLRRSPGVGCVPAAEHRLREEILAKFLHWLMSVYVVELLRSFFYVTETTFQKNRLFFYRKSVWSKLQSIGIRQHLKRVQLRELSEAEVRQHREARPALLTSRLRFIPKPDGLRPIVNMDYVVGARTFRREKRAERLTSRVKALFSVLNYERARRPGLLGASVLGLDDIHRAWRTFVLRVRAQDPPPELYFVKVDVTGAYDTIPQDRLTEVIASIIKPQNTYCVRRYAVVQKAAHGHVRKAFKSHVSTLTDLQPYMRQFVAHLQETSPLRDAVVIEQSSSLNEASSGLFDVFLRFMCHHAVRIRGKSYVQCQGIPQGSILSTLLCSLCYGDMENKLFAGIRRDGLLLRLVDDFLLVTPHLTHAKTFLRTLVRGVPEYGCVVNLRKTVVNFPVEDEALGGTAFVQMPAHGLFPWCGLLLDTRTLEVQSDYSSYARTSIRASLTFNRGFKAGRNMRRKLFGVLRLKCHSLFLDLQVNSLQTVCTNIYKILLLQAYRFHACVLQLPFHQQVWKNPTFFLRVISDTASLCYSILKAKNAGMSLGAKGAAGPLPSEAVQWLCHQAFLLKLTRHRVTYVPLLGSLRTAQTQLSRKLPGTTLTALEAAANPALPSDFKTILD

These are yes or no findings as the source states them, for the method shown. Some binding calls cover weakened binding; strength is not graded here.

In this assay the target is telomerase reverse transcriptase (human (endogenous in Huh7)) (UniProt O14746). Description: native gel or EMSA; Huh7 lysate incubated 1 h at RT with 10 µM ZnPP or vehicle, run on non-denaturing 0.8% agarose gel (0.5x TBE), diffusion-blotted onto nitrocellulose and stained with anti-TERT or anti-dyskerin antibodies. In general terms: A gel shift assay detects complexes by their altered migration in electrophoresis.

B1: dyskerin (protein, UniProt O60832 1-514)
chain: MADAEVIILPKKHKKKKERKSLPEEDVAEIQHAEEFLIKPESKVAKLDTSQWPLLLKNFDKLNVRTTHYTPLACGSNPLKREIGDYIRTGFINLDKPSNPSSHEVVAWIRRILRVEKTGHSGTLDPKVTGCLIVCIERATRLVKSQQSAGKEYVGIVRLHNAIEGGTQLSRALETLTGALFQRPPLIAAVKRQLRVRTIYESKMIEYDPERRLGIFWVSCEAGTYIRTLCVHLGLLLGVGGQMQELRRVRSGVMSEKDHMVTMHDVLDAQWLYDNHKDESYLRRVVYPLEKLLTSHKRLVMKDSAVNAICYGAKIMLPGVLRYEDGIEVNQEIVVITTKGEAICMAIALMTTAVISTCDHGIVAKIKRVIMERDTYPRKWGLGPKASQKKLMIKQGLLDKHGKPTDSTPATWKQEYVDYSESAKKEVVAEVVKAPQVVAEAAKTAKRKRESESESDETPPAAPQLIKKEKKKSKKDKKAKAGLESGAEPGDGDSDTTKKKKKKKKAKEVELVSE
Take B1: the binding result is “binds”.
